Results reported in patent publication US20100298415.

Sequences of proteins named here, by UniProt entry; tags and fusion partners are left off. A change or cut given only in a name is not applied to a line headed by its entry. Residues count along the entry.
UniProt O95863: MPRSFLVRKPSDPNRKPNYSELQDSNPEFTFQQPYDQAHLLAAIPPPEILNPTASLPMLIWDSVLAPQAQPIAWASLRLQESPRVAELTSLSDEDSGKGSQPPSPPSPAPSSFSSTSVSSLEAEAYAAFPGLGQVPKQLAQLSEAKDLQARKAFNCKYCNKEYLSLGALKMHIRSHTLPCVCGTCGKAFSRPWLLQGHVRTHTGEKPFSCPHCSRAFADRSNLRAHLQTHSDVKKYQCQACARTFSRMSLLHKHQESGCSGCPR
UniProt P19538, 451-603: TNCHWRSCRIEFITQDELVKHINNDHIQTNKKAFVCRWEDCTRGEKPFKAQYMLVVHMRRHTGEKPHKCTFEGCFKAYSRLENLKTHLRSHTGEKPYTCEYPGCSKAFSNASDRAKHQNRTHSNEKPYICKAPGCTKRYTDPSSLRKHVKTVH

Key:
[1] = target: Snail1 (UniProt O95863); assay: activity in cells; conditions: PS three linkages at 5' and 3' ends of both strands; 5' C6 amino linker conjugated to Co(III) Schiff base; E-cadherin promoter luciferase derepression, up to 250 nM; protein in cells; protein details: endogenous in MDA-MB-231 cells; only the site is given
[2] = test system: p105 (NF-kB); assay: EMSA; conditions: legend says Slug probe, methods list NF-kB probe; binding not inhibited by 1 uM Co(III)-Ebox; protein in a lysate after overexpression; protein details: mRNA-injected Xenopus blastula embryo lysate; label: 32P 5' end
[3] = target: T1, Snail (Snail1) (UniProt P19382); assay: EMSA; conditions: embryo lysate, 32P Slug probe; protein in a lysate after overexpression; label: 32P 5' end
T1 sequence (looked up, limits assumed): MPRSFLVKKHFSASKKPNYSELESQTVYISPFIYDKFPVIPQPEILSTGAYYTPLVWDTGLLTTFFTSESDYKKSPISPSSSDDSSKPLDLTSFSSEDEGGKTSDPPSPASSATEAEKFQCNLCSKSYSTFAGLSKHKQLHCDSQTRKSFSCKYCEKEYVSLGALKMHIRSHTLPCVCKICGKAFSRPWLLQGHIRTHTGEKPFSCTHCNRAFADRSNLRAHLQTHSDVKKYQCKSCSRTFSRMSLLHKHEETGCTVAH

[4] = target: T2, Slug (Snail2) (UniProt Q91924); assay: EMSA; conditions: embryo lysate, poly dI/dC, 0.2 mM ZnSO4, room temperature; protein in a lysate after overexpression; label: 32P 5' end
T2 sequence (looked up, limits assumed): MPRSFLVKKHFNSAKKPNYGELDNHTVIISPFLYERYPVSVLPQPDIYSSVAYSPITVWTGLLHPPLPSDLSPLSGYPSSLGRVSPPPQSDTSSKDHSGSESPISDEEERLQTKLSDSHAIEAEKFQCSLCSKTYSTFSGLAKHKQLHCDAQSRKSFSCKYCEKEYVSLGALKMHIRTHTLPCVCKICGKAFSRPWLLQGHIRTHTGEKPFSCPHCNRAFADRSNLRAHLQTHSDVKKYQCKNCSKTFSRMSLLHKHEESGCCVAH

[5] = target: T3, Sip1 (XSip1) (Xenopus laevis) (UniProt Q5U4S2); assay: EMSA; conditions: embryo lysate, 32P Slug probe; protein in a lysate after overexpression; label: 32P 5' end
T3 sequence (looked up, limits assumed): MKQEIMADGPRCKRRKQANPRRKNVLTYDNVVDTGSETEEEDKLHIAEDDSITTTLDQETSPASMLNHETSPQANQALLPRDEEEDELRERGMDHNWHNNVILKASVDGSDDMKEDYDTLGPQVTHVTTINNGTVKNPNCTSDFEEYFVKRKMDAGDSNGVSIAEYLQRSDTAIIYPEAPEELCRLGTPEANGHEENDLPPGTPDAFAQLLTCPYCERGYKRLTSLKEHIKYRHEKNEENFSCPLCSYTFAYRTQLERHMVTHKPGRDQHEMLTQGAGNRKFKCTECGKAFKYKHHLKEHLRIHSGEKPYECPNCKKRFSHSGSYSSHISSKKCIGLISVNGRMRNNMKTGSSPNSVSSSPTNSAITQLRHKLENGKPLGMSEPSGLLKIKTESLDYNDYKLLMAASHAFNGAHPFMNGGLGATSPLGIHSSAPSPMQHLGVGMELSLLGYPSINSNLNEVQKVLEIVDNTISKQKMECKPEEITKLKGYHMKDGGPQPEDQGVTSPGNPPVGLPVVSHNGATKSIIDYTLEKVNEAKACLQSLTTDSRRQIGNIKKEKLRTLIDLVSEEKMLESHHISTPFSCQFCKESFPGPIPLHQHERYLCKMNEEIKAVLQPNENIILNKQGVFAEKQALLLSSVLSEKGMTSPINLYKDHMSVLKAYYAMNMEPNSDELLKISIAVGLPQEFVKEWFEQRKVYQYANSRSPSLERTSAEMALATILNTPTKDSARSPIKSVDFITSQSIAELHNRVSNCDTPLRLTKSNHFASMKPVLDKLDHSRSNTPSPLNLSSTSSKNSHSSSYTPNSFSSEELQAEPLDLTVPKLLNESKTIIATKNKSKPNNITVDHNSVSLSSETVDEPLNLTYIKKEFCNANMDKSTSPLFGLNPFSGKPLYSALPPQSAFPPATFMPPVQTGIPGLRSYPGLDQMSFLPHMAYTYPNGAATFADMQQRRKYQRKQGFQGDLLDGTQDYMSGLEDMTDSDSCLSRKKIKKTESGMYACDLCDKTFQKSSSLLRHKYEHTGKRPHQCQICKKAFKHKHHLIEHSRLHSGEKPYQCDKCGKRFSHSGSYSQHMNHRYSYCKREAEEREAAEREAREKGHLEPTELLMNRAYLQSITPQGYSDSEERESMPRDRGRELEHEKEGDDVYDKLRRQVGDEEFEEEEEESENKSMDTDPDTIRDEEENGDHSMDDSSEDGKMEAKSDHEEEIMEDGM

[6] = target: Ci (Cubitus interruptus) zinc finger region (UniProt P19538); assay: competition with a labelled probe; conditions: conjugated to Co(III) Schiff base; 1e-12 to 1e-7 M Co(III)-Gli, clear inhibition of DNA binding; oligo sequence assigned from listing (FIG. 9); protein in a lysate after overexpression; protein details: transfected Drosophila S2 cell lysate
[7] = test system: MitF; assay: EMSA; conditions: legend says Slug probe, methods list MitF probe; binding not inhibited by 1 uM Co(III)-Ebox; protein in a lysate after overexpression; protein details: mRNA-injected Xenopus blastula embryo lysate; label: 32P 5' end
[8] = test system: Lef-1; assay: EMSA; conditions: legend says Slug probe, methods list Lef-1 probe; binding not inhibited by 1 uM Co(III)-Ebox; protein in a lysate after overexpression; protein details: mRNA-injected Xenopus blastula embryo lysate; label: 32P 5' end

TACGACAGGTGTTGGGA (double strand) [Co(III)-Ebox]
activity on this sequence [1]: active

GCCTGGGAAAGTCCCCTCAACT (double strand) [NF-kB probe (Promega)]
binding result [2]: binds

TGTTTCCATCCCAACACCTGTCGTATACAA (double strand) [Slug probe]
binding result [3]: binds
binding result [4]: binds
binding result [5]: binds

CTACCTGGGTGGTCTCT (double strand) [Co(III)-Gli]
binding result [6]: binds

CAGGTG (double strand) [MitF probe]
binding result [7]: binds

TCGAATTCTCACCCTTTGAAGCTCTT (double strand) [Lef-1 probe]
binding result [8]: binds

For some assays here: Results from cells or extracts need not show a direct contact. For some assays here: Protein sequences can lack the tags named with them. For some assays here: The exact form of at least one protein or probe is not confirmed.
